From patent US8901276B2 (The Regents of the University of Michigan, priority 2010, dated 2014)
Where a sequence shows no end group, the ends are not given.

Test: general procedure: Fmoc solid-phase peptide synthesis; rink amide MBHA resin
Conditions: whole synthesis, reverse phase analytical HPLC on a C18 column

In the case of “QPIHPNNM (N-terminal Cy5.5 via aminohexanoic acid)”, the “final HPLC purity” value is reported as over 95%.
